PMC7229178
No constants are given. Whether binding was seen depends on the method and setting. Binding seen in cells or lysates may run through a third protein. Some binding calls cover weakened binding; strength is not graded here.

The chains behind the UniProt entries cited, without tags or fusion partners. Residues count along the entry.
UniProt Q13586, residues 23-685: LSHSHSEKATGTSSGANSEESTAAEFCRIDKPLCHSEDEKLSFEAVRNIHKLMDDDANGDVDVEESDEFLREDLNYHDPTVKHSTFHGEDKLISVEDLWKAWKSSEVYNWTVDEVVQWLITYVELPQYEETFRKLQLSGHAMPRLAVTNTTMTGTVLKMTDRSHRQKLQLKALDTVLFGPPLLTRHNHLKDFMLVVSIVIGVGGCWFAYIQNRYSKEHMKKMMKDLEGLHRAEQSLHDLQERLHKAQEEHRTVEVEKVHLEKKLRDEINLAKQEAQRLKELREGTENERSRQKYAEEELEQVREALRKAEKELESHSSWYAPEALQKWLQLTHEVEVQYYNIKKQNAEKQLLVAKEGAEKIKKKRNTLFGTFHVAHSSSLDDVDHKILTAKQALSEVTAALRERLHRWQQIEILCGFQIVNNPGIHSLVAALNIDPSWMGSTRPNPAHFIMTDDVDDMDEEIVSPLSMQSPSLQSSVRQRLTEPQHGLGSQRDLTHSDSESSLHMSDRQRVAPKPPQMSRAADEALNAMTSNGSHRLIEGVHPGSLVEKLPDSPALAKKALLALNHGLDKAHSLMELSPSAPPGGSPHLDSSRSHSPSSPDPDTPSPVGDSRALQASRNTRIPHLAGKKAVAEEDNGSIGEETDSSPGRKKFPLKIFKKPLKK
UniProt Q96D31: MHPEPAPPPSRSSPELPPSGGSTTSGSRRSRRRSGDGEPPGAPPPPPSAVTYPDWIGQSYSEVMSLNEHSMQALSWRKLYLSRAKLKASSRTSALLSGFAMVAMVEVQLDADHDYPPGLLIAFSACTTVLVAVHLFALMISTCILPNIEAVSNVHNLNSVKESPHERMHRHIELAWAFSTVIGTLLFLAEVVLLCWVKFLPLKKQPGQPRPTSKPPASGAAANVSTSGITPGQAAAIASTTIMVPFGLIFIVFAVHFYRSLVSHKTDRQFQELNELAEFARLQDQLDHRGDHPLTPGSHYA
UniProt Q96SN7: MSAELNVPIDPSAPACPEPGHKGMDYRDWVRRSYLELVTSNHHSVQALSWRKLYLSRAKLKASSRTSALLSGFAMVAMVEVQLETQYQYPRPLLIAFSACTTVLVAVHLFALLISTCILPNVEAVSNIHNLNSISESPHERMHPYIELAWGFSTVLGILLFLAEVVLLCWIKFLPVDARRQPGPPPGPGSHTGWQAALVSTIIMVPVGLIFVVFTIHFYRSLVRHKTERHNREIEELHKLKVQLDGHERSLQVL

How the values were obtained:
STIM1-YFP = STIM1-YFP (UniProt Q13586); assay: FRET or BRET; E-FRET microscopy in live ORAI-TKO HEK293 cells co-expressing STIM1-YFP and one CFP-ORAI isoform; room temperature; HBSS with 2 mM Ca2+; at rest and after 2 µM thapsigargin; measured every 20 s for 10 min; YFP/CFP ratios of ~1
CFP/YFP-tagged ORAI1 = CFP/YFP-tagged ORAI1 (UniProt Q96D31); assay: FRET or BRET; E-FRET microscopy in live ORAI-TKO HEK293 cells co-expressing two CFP/YFP-tagged ORAI isoforms with STIM1-mCherry; room temperature; at baseline and 5 min after 10, 30 or 100 µM Cch or 1 µM ionomycin

Substance	binding (STIM1-YFP)	binding (CFP/YFP-tagged ORAI1)
CFP-ORAI2 (from UniProt Q96SN7 1-254)	binds	
CFP/YFP-tagged ORAI2 (from UniProt Q96SN7 1-254)		binds
